In the experiment the test system is CD2F1 mice, nontumored, toxicity/survival. The experiment can be described thus: NCI In Vivo Anticancer Drug Screen. Data for tumor model Nontumored Animals (Toxicity Test) in CD2F1 (CDF1) mice.

Molecules are shown by their SMILES. The mice bore no tumour; each value counts animals alive of those treated. Survivors were counted at the toxicity check, usually on the fifth day, unless a day is given; later deaths do not show. Schedule codes are those of the source, taken here to give the interval after Q, in days (D) or hours (H), and the number of doses after X. Some entries hold several experiments; the results are listed from low to high.

Regarding `COc1cccc2c1C(=O)c1c(O)c3c(c(O)c1C2=O)C[C@@](O)(C(=O)CO)C[C@@H]3OC1CC(N)C(O)C(C)O1` (some centres undefined), the survivor count is, setting by setting: (dose: 0.5 mg/kg/injection, schedule: Q04DX003 (ip), vehicle: saline) 5 of 5; (dose: 1.0 mg/kg/injection, schedule: Q04DX003 (ip), vehicle: saline) 4 of 4 and 5 of 5; (dose: 1.3 mg/kg/injection, schedule: Q04DX003 (ip), vehicle: saline) 5 of 5; (dose: 1.3 mg/kg/injection, schedule: Q10HX004 (ip), vehicle: saline) 5 of 5; (dose: 2.0 mg/kg/injection, schedule: Q04DX003 (ip), vehicle: saline) 4 of 4 and 5 of 5; (dose: 2.16 mg/kg/injection, schedule: Q04DX003 (ip), vehicle: saline) 5 of 5. Besides, the survivor count (dose: 2.16 mg/kg/injection, schedule: Q10HX004 (ip), vehicle: saline) is 5 of 5; the survivor count (dose: 2.4 mg/kg/injection, schedule: Q01DX001 (ip), vehicle: saline) is given as 4 of 4; the survivor count (dose: 3.6 mg/kg/injection, schedule: Q01DX001 (ip), vehicle: saline) is recorded as 4 of 4; the survivor count (dose: 3.6 mg/kg/injection, schedule: Q04DX003 (ip), vehicle: saline) is reported as 5 of 5; the survivor count (dose: 3.6 mg/kg/injection, schedule: Q10HX004 (ip), vehicle: saline) is listed as 5 of 5; the survivor count (dose: 4.0 mg/kg/injection, schedule: Q01DX001 (ip), vehicle: saline) was 4 of 4 and 6 of 6. For the same molecule, the survivor count by setting is: (dose: 4.0 mg/kg/injection, schedule: Q04DX003 (ip), vehicle: saline) 4 of 4 and 5 of 5; (dose: 4.75 mg/kg/injection, schedule: Q01DX001 (ip), vehicle: saline) 6 of 6; (dose: 5.9 mg/kg/injection, schedule: Q01DX001 (ip), vehicle: saline) 5 of 5; (dose: 6.0 mg/kg/injection, schedule: Q01DX001 (ip), vehicle: saline) 4 of 4; (dose: 6.0 mg/kg/injection, schedule: Q04DX003 (ip), vehicle: saline) 5 of 5; (dose: 6.0 mg/kg/injection, schedule: Q10HX004 (ip), vehicle: saline) 3 of 4. Also, the survivor count is, setting by setting: (dose: 6.33 mg/kg/injection, schedule: Q01DX001 (ip), vehicle: saline) 6 of 6; (dose: 6.7 mg/kg/injection, schedule: Q01DX001 (ip), vehicle: saline) 10 of 10; (dose: 7.1 mg/kg/injection, schedule: Q01DX001 (ip), vehicle: saline) 10 of 10; (dose: 8.0 mg/kg/injection, schedule: Q01DX001 (ip), vehicle: saline) 4 of 4 and 6 of 6; (dose: 8.0 mg/kg/injection, schedule: Q04DX003 (ip), vehicle: saline) 4 of 4 and 5 of 5; (dose: 8.44 mg/kg/injection, schedule: Q01DX001 (ip), vehicle: saline) 6 of 6. Further, the survivor count is, setting by setting: (dose: 8.9 mg/kg/injection, schedule: Q01DX001 (ip), vehicle: saline) 5 of 5; (dose: 9.6 mg/kg/injection, schedule: Q01DX001 (ip), vehicle: clinical formulation) 6 of 6; (dose: 9.6 mg/kg/injection, schedule: Q01DX001 (ip), vehicle: saline) 4 of 4 and 6 of 6; (dose: 10.0 mg/kg/injection, schedule: Q01DX001 (ip), vehicle: saline) 10 of 10 and 4 of 4; (dose: 10.0 mg/kg/injection, schedule: Q04DX003 (ip), vehicle: saline) 5 of 5; (dose: 10.0 mg/kg/injection, schedule: Q10HX004 (ip), vehicle: saline) 5 of 5. Moreover, the survivor count was 9 of 10 and 10 of 10 (dose: 10.7 mg/kg/injection, schedule: Q01DX001 (ip), vehicle: saline); 2 of 4 and 6 of 6 (dose: 11.25 mg/kg/injection, schedule: Q01DX001 (ip), vehicle: saline); 4 of 4 (dose: 12.0 mg/kg/injection, schedule: Q01DX001 (ip), vehicle: saline); 5 of 5 (dose: 13.3 mg/kg/injection, schedule: Q01DX001 (ip), vehicle: saline); 4 of 5 and 6 of 6 (dose: 15.0 mg/kg/injection, schedule: Q01DX001 (ip), vehicle: saline); 6 of 6 (dose: 16.0 mg/kg/injection, schedule: Q01DX001 (ip), vehicle: clinical formulation). Besides, the survivor count runs as follows: (dose: 16.0 mg/kg/injection, schedule: Q01DX001 (ip), vehicle: saline) 0 of 2, 7 of 10, 8 of 10, 9 of 10, 10 of 10, 4 of 4, 6 of 6; (dose: 19.2 mg/kg/injection, schedule: Q01DX001 (ip), vehicle: clinical formulation) 6 of 6; (dose: 19.2 mg/kg/injection, schedule: Q01DX001 (ip), vehicle: saline) 6 of 6; (dose: 20.0 mg/kg/injection, schedule: Q01DX001 (ip), vehicle: saline) 2 of 4, 4 of 5, 5 of 5; (dose: 24.0 mg/kg/injection, schedule: Q01DX001 (ip), vehicle: saline) 3 of 10, 4 of 10, 6 of 10; (dose: 26.67 mg/kg/injection, schedule: Q01DX001 (ip), vehicle: saline) 2 of 2. Moreover, the survivor count is listed as 0 of 2 (dose: 26.7 mg/kg/injection, schedule: Q01DX001 (ip), vehicle: saline); 3 of 5 (dose: 30.0 mg/kg/injection, schedule: Q01DX001 (ip), vehicle: saline); 6 of 6 (dose: 32.0 mg/kg/injection, schedule: Q01DX001 (ip), vehicle: saline); 4 of 5 (dose: 64.0 mg/kg/injection, schedule: Q01DX001 (ip), vehicle: saline); 2 of 2 (dose: 128.0 mg/kg/injection, schedule: Q01DX001 (ip), vehicle: saline).

As to `Cc1cnc(/C=N\NC(N)=S)c2cccc(N)c12`, the survivor count is 5 of 5 (dose: 4.5 mg/kg/injection, schedule: Q03HX024 (ip), vehicle: Klucel (hydroxypropylcellulose) (HPC)); 6 of 6 (dose: 6.7 mg/kg/injection, schedule: Q03HX024 (ip), vehicle: Klucel (hydroxypropylcellulose) (HPC)); 6 of 6 (dose: 10.0 mg/kg/injection, schedule: Q03HX024 (ip), vehicle: Klucel (hydroxypropylcellulose) (HPC)); 0 of 6 (dose: 15.0 mg/kg/injection, schedule: Q03HX024 (ip), vehicle: Klucel (hydroxypropylcellulose) (HPC)); 1 of 6 (dose: 22.5 mg/kg/injection, schedule: Q03HX024 (ip), vehicle: Klucel (hydroxypropylcellulose) (HPC)); 1 of 6 (dose: 33.8 mg/kg/injection, schedule: Q03HX024 (ip), vehicle: Klucel (hydroxypropylcellulose) (HPC)).

As for `Cc1ncc(CNC(=O)N(CCCl)N=O)c(N)n1`, the survivor count (dose: 22.0 mg/kg/injection, schedule: Q01DX001 (ip), vehicle: saline) was 10 of 10; the survivor count (dose: 33.0 mg/kg/injection, schedule: Q01DX001 (ip), vehicle: saline) was 10 of 10; the survivor count (dose: 44.0 mg/kg/injection, schedule: Q01DX001 (ip), vehicle: saline) is recorded as 10 of 10; the survivor count (dose: 66.0 mg/kg/injection, schedule: Q01DX001 (ip), vehicle: saline) is given as 10 of 10; the survivor count (dose: 100.0 mg/kg/injection, schedule: Q01DX001 (ip), vehicle: saline) is given as 10 of 10; the survivor count (dose: 150.0 mg/kg/injection, schedule: Q01DX001 (ip), vehicle: saline) is listed as 10 of 10.

Take `Nc1nc(=S)c2[nH]cnc2[nH]1`: the survivor count was 5 of 5 (dose: 0.52 mg/kg/injection, schedule: Q01DX009 (ip), vehicle: acid diluted with saline); 5 of 5 (dose: 0.86 mg/kg/injection, schedule: Q01DX009 (ip), vehicle: acid diluted with saline); 5 of 5 (dose: 1.44 mg/kg/injection, schedule: Q01DX009 (ip), vehicle: acid diluted with saline); 5 of 5 (dose: 2.4 mg/kg/injection, schedule: Q01DX009 (ip), vehicle: acid diluted with saline); 5 of 5 (dose: 4.0 mg/kg/injection, schedule: Q01DX009 (ip), vehicle: acid diluted with saline).

Values taken from PubChem BioAssay AID188 (DTP/NCI, 2004).
